Data on 32 compounds can be found in the supplement of paper PMC4604168 (melanoma cell lines).

This is one part of the list. Many values rest on one well or one pass, so single values are uncertain.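 Imaging used 1,536-well plates; nuclei positive for cleaved PARP by antibody were divided by total DNA-stained nuclei to yield the apoptosis fraction. Doses for screening kept most cells viable, and cell lines differ markedly in resting and induced cleaved-PARP levels.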

For the assay, the system named is WM1745. Description: cleaved PARP positive nuclei fraction relative to DMSO control; melanoma cells; higher = more apoptosis. Conditions: library dose: low library concentration; 72 h.
Take `COc1cc(Nc2ncc(F)c(Nc3ccc4c(n3)NC(=O)C(C)(C)O4)n2)cc(OC)c1OC` [Tamatinib] + O=C(Nc1ccccc1)c1cc([N+](=O)[O-])ccc1Cl [GW9662] (first compound 0.4 µM, partner dose 2 µM): the “cleaved PARP positive nuclei fraction” value worked out at 185%.

For `Cn1cncc1[C@@](N)(c1ccc(Cl)cc1)c1ccc2c(c1)c(-c1cccc(Cl)c1)cc(=O)n2C` [tipifarnib] + O=C(O)C(=O)Nc1sc2c(c1C(=O)O)CCNC2 [TCS401] (first compound 0.01 µM, partner dose 1.66667 µM), the “cleaved PARP positive nuclei fraction” value was found to be 84.5%.

For the compound `C=CCNC1=C2C[C@@H](C)C[C@H](OC)[C@H](O)[C@@H](C)/C=C(\C)[C@H](OC(N)=O)[C@@H](OC)/C=C\C=C(/C)C(=O)NC(=CC1=O)C2=O` [Tanespimycin] + COc1cc(Nc2ncc(F)c(Nc3ccc4c(n3)NC(=O)C(C)(C)O4)n2)cc(OC)c1OC [Tamatinib] (first compound 0.002 µM, partner dose 0.4 µM), the “cleaved PARP positive nuclei fraction” value turned out to be 145%.

Take `Nc1cccc2c1CN(C1CCC(=O)NC1=O)C2=O` (configuration not stated) [lenalidomide] + O=C(O)c1ccc(-c2c[nH]c3ncc(-c4ccccc4)cc23)cc1C1CCCC1 [GSK650394] (first compound 1 µM, partner dose 0.16 µM): the “cleaved PARP positive nuclei fraction” value stood at 105%.

Regarding `Cn1cncc1[C@@](N)(c1ccc(Cl)cc1)c1ccc2c(c1)c(-c1cccc(Cl)c1)cc(=O)n2C` [tipifarnib] + CN(C)S(=O)(=O)c1ccc2c(c1)/C(=C/c1cc3c([nH]1)CCCC3)C(=O)N2 [SU6656] (first compound 0.01 µM, partner dose 0.4 µM), the “cleaved PARP positive nuclei fraction” value was determined as 90.5%.

As for `Cc1nc(Nc2ncc(C(=O)Nc3c(C)cccc3Cl)s2)cc(N2CCN(CCO)CC2)n1` [dasatanib] + C=CCn1c(=O)c2cnc(Nc3ccc(N4CCN(C)CC4)cc3)nc2n1-c1cccc(C(C)(C)O)n1 [MK1775] (first compound 0.004 µM, partner dose 0.02 µM), the “cleaved PARP positive nuclei fraction” value is 170%.

For the compound `O=C(CCCCCCC(=O)Nc1ccccc1)NO` [vorinostat] + COc1ccc(COc2ccc(Cc3cnc(N)nc3N)cc2OC)cc1 [GW2580] (first compound 0.08 µM, partner dose 1 µM), the “cleaved PARP positive nuclei fraction” value was determined as 82%.

As for `C[C@@H]1CCN(C(=O)CC#N)C[C@@H]1N(C)c1ncnc2[nH]ccc12` + CCc1ccc(CCOc2ccc(CC3SC(=O)NC3=O)cc2)nc1 [pioglitazone] (first compound 1 µM, partner dose 2 µM), the “cleaved PARP positive nuclei fraction” value is 105%.

With `C#Cc1cccc(Nc2ncnc3cc(OCCOC)c(OCCOC)cc23)c1` [erlotinib] + CC(C)(C)c1cnc(CSc2cnc(NC(=O)C3CCNCC3)s2)o1 [SNS-032] (first compound 0.8 µM, partner dose 0.01 µM), the “cleaved PARP positive nuclei fraction” value turned out to be 107%.

With `Cn1cncc1[C@@](N)(c1ccc(Cl)cc1)c1ccc2c(c1)c(-c1cccc(Cl)c1)cc(=O)n2C` [tipifarnib] + N#Cc1c(O)c2c(-c3ccc(-c4ccccc4O)cc3)csc2[nH]c1=O [A769662] (first compound 0.01 µM, partner dose 2 µM), the “cleaved PARP positive nuclei fraction” value amounted to 114%.

With `Cn1cncc1[C@@](N)(c1ccc(Cl)cc1)c1ccc2c(c1)c(-c1cccc(Cl)c1)cc(=O)n2C` [tipifarnib] + COc1cc(N2CCC(N3CCN(C)CC3)CC2)ccc1Nc1ncc(Cl)c(Nc2ccccc2S(=O)(=O)C(C)C)n1 [NVP-TAE684] (first compound 0.01 µM, partner dose 0.08 µM), the “cleaved PARP positive nuclei fraction” value amounted to 475%.

For the compound `COCC[n+]1c2c(n(Cc3cnccn3)c1C)C(=O)c1ccccc1C2=O` + NC(=O)Nc1cc(-c2cccc(F)c2)sc1C(=O)N[C@H]1CCCNC1 [AZD7762] (first compound 0.0004 µM, partner dose 0.02 µM), the “cleaved PARP positive nuclei fraction” value is 174%.

Turning to `Nc1cccc2c1CN(C1CCC(=O)NC1=O)C2=O` (configuration not stated) [lenalidomide] + OCCn1cc(-c2cnc3nnn(Cc4ccc5ncccc5c4)c3n2)cn1 [PF04217903] (first compound 1 µM, partner dose 1 µM), the “cleaved PARP positive nuclei fraction” value was found to be 120%.

With `Cn1nnc2c(C(N)=O)ncn2c1=O` [temozolomide] + Cc1ccc(NC(=O)c2cccc(N(C)C)c2)cc1NC(=O)c1ccc(O)cc1 [ZM336372] (first compound 2 µM, partner dose 2 µM), the “cleaved PARP positive nuclei fraction” value turned out to be 89.4%.

Regarding `Cn1nnc2c(C(N)=O)ncn2c1=O` [temozolomide] + Cn1cc(/C=C2\C(=O)Nc3cccnc32)c2ccccc21 [GW441756] (first compound 2 µM, partner dose 0.4 µM), the “cleaved PARP positive nuclei fraction” value came out at 132%.

For the compound `Cc1cc(N2CCOCC2)cc2[nH]c(-c3c(NC[C@@H](O)c4cccc(Cl)c4)cc[nH]c3=O)nc12` + O=C(Nc1ccccc1)c1cc([N+](=O)[O-])ccc1Cl [GW9662] (first compound 0.2 µM, partner dose 2 µM), the “cleaved PARP positive nuclei fraction” value was 113%.

Turning to `C[C@]1(c2nc3c(C(N)=O)cccc3[nH]2)CCCN1` [Veliparib] + Oc1cc(-c2nc(-c3ccccc3)[nH]c2-c2ccncc2)ccc1Cl [L779450] (first compound 1.4 µM, partner dose 0.2 µM), the “cleaved PARP positive nuclei fraction” value was 121%.

In the case of `C#Cc1cccc(Nc2ncnc3cc(OCCOC)c(OCCOC)cc23)c1` [erlotinib] + Cc1cc([N+](=O)[O-])ccc1NS(=O)(=O)c1cc(Cl)ccc1Cl [FH535] (first compound 0.8 µM, partner dose 1 µM), the “cleaved PARP positive nuclei fraction” value worked out at 109%.

For the compound `C[C@]1(c2nc3c(C(N)=O)cccc3[nH]2)CCCN1` [Veliparib] + C=CCn1c(=O)c2cnc(Nc3ccc(N4CCN(C)CC4)cc3)nc2n1-c1cccc(C(C)(C)O)n1 [MK1775] (first compound 1.4 µM, partner dose 0.02 µM), the “cleaved PARP positive nuclei fraction” value was 119%.

Take `Cn1c(Nc2ccc(C(F)(F)F)cc2)nc2cc(Oc3ccnc(-c4ncc(C(F)(F)F)[nH]4)c3)ccc21` + O=C(Nc1cccc(Cl)c1)Nc1ncc(CCNc2ncnc3ccsc23)s1 [SNS314] (first compound 0.08 µM, partner dose 0.0008 µM): the “cleaved PARP positive nuclei fraction” value is 130%.

As for `C#Cc1cccc(Nc2ncnc3cc(OCCOC)c(OCCOC)cc23)c1` [erlotinib] + O=C(Nc1ccccc1)c1cc([N+](=O)[O-])ccc1Cl [GW9662] (first compound 0.8 µM, partner dose 2 µM), the “cleaved PARP positive nuclei fraction” value is 139%.

For `NC(=O)Nc1cc(-c2cccc(F)c2)sc1C(=O)N[C@H]1CCCNC1` + C[C@@H]1CCN(C(=O)CC#N)C[C@@H]1N(C)c1ncnc2[nH]ccc12 [CP690550] (first compound 0.02 µM, partner dose 1 µM), the “cleaved PARP positive nuclei fraction” value was determined as 95%.

For the compound `COCC[n+]1c2c(n(Cc3cnccn3)c1C)C(=O)c1ccccc1C2=O` + OCCn1cc(-c2cnc3nnn(Cc4ccc5ncccc5c4)c3n2)cn1 [PF04217903] (first compound 0.0004 µM, partner dose 1 µM), the “cleaved PARP positive nuclei fraction” value turned out to be 83.8%.

For `C=CCn1c(=O)c2cnc(Nc3ccc(N4CCN(C)CC4)cc3)nc2n1-c1cccc(C(C)(C)O)n1` + COc1ccc(-c2ccc3c(N4CCOCC4)nc(N4C[C@@H](C)O[C@@H](C)C4)nc3n2)cc1CO [KU0063794] (first compound 0.02 µM, partner dose 0.02 µM), the “cleaved PARP positive nuclei fraction” value worked out at 118%.

In the case of `Cc1cc(N2CCOCC2)cc2[nH]c(-c3c(NC[C@@H](O)c4cccc(Cl)c4)cc[nH]c3=O)nc12` + CCCCCCCCCCCC1=C(O)C(=O)C=C(O)C1=O [Embelin] (first compound 0.2 µM, partner dose 1.2 µM), the “cleaved PARP positive nuclei fraction” value came to 147%.

Take `C=CCNC1=C2C[C@@H](C)C[C@H](OC)[C@H](O)[C@@H](C)/C=C(\C)[C@H](OC(N)=O)[C@@H](OC)/C=C\C=C(/C)C(=O)NC(=CC1=O)C2=O` [Tanespimycin] + CN(NC(=O)CC(=O)NN(C)C(=S)c1ccccc1)C(=S)c1ccccc1 [STA4783] (first compound 0.002 µM, partner dose 0.006 µM): the “cleaved PARP positive nuclei fraction” value turned out to be 168%.

`COCC[n+]1c2c(n(Cc3cnccn3)c1C)C(=O)c1ccccc1C2=O` + N#Cc1c(O)c2c(-c3ccc(-c4ccccc4O)cc3)csc2[nH]c1=O [A769662] (first compound 0.0004 µM, partner dose 2 µM): the “cleaved PARP positive nuclei fraction” value amounted to 100%.

On to `C[C@@H]1CCN(C(=O)CC#N)C[C@@H]1N(C)c1ncnc2[nH]ccc12` + COc1ccc(COc2ccc(Cc3cnc(N)nc3N)cc2OC)cc1 [GW2580] (first compound 1 µM, partner dose 1 µM), for which the “cleaved PARP positive nuclei fraction” value was 110%.

In the case of `Cn1c(Nc2ccc(C(F)(F)F)cc2)nc2cc(Oc3ccnc(-c4ncc(C(F)(F)F)[nH]4)c3)ccc21` + CCCCCCCCCCCC1=C(O)C(=O)C=C(O)C1=O [Embelin] (first compound 0.08 µM, partner dose 1.2 µM), the “cleaved PARP positive nuclei fraction” value stood at 135%.

As for `C=CCn1c(=O)c2cnc(Nc3ccc(N4CCN(C)CC4)cc3)nc2n1-c1cccc(C(C)(C)O)n1` + CC(C)(C)c1cnc(CSc2cnc(NC(=O)C3CCNCC3)s2)o1 [SNS-032] (first compound 0.02 µM, partner dose 0.01 µM), the “cleaved PARP positive nuclei fraction” value worked out at 119%.

As to `Cc1nc(Nc2ncc(C(=O)Nc3c(C)cccc3Cl)s2)cc(N2CCN(CCO)CC2)n1` [dasatanib] + CC(C)CCN1c2nc(Nc3cc(F)c(O)c(F)c3)ncc2N(C)C(=O)C1C [BID1870] (first compound 0.004 µM, partner dose 0.2 µM), the “cleaved PARP positive nuclei fraction” value worked out at 136%.

For the compound `CC1(C)NC(=O)N(c2ccc([N+](=O)[O-])c(C(F)(F)F)c2)C1=O` [nilutamide] + CN(C)S(=O)(=O)c1ccc2c(c1)/C(=C/c1cc3c([nH]1)CCCC3)C(=O)N2 [SU6656] (first compound 1 µM, partner dose 0.4 µM), the “cleaved PARP positive nuclei fraction” value is 84.2%.
